{
  "sequences": {"note": "Sequences of proteins named here, by UniProt entry; tags and fusion partners are left off.", "UniProt Q9H8M2": "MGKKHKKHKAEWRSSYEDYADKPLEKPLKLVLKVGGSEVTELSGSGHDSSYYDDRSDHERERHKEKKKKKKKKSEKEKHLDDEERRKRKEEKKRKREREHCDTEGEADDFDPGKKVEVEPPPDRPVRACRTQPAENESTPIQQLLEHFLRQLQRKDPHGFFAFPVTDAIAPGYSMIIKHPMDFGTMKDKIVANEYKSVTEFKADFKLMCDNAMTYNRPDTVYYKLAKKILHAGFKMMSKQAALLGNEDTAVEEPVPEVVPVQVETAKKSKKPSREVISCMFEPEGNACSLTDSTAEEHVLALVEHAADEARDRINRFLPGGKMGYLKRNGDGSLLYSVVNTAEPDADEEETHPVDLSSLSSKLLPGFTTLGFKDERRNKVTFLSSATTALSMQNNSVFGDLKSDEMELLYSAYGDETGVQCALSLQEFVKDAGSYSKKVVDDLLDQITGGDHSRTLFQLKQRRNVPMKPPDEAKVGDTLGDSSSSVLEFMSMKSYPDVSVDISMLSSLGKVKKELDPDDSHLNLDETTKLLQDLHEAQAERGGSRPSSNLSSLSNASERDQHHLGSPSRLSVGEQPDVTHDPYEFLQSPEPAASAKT", "UniProt Q9NZM4": "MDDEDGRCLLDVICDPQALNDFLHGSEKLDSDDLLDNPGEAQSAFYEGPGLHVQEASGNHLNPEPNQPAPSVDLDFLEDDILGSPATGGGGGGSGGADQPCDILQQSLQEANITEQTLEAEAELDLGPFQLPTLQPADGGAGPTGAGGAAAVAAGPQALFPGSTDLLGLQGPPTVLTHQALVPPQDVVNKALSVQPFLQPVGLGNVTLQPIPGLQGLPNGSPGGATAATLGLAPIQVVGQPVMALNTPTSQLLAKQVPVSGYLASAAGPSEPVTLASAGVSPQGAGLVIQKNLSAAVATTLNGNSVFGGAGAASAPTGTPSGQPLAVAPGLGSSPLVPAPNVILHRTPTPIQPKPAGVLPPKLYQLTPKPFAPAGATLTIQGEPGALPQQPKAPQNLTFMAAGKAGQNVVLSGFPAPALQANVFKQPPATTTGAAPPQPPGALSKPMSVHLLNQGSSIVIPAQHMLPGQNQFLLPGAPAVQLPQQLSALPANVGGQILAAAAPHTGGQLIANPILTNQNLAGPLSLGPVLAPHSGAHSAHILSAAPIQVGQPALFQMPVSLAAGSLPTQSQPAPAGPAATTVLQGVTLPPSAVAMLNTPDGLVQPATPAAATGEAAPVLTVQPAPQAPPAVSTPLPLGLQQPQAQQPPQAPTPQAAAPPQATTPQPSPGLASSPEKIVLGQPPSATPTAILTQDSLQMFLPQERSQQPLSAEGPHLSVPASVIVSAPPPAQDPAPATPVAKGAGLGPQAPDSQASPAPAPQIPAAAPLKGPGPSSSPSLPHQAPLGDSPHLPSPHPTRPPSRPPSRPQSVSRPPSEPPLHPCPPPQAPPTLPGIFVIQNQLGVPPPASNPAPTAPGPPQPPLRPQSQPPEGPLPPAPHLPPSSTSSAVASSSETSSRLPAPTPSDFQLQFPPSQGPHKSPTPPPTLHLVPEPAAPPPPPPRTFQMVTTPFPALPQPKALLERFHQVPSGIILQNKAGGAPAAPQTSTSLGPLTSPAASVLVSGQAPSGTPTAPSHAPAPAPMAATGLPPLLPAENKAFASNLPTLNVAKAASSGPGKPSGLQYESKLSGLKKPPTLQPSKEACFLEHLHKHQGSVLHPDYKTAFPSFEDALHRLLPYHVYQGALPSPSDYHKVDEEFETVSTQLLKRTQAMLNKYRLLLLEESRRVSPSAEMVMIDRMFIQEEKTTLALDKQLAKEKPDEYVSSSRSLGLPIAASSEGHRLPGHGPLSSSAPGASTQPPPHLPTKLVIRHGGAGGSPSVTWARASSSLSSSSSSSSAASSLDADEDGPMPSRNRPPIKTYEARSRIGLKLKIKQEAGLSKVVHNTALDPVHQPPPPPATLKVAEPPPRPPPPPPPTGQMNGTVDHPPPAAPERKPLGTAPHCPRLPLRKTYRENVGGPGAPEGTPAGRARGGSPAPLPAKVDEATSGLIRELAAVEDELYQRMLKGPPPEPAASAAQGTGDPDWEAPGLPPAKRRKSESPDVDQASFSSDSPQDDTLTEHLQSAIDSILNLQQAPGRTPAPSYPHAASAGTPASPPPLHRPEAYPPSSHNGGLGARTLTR"},
  "source": "paper PMC8490982",
  "molecular_target": "Bromodomain-containing protein 9 (BRD9), wild type (human) (UniProt Q9H8M2)",
  "assay": "co-IP",
  "note": "No constants are given. Whether binding was seen depends on the method and setting. In cells and extracts the contact can be indirect. Some binding calls cover weakened binding; strength is not graded here.",
  "data": [
    {"substance": "GLTSCR1 (from UniProt Q9NZM4 1-1560)", "values": [
      {"measurement": "binding", "value": "binds"}
    ]}
  ]
}
